{"sequences": {"note": "Protein sequences, listed by entry. Tags and fused reporters are not part of them.", "UniProt Q95136, whole entry": "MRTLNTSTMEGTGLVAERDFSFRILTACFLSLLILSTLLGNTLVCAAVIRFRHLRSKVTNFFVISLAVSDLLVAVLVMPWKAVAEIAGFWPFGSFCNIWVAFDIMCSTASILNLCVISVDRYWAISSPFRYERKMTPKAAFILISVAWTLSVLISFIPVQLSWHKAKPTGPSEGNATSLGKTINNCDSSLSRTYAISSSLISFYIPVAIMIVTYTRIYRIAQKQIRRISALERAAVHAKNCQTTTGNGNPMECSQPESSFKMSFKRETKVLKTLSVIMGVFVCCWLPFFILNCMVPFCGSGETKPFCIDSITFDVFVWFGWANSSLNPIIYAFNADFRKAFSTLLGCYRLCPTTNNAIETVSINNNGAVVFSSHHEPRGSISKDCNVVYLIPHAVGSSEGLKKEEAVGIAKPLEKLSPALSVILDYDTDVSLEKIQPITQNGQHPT"}, "source": "BindingDB's records for doi:10.1176/jnp.8.2.223", "about": "(1996)", "target": "D(1A) dopamine receptor (Bos taurus, UniProt Q95136)", "note": "Where a name gives a salt, the structure may show the parent alone."}
{"smiles": "OCCN1CCN(CCCN2c3ccccc3Sc3ccc(C(F)(F)F)cc32)CC1", "note": "[2-[4-[3-[2-(trifluoromethyl)phenothiazin-10-yl]propyl]piperazin-1-yl]ethanol;hydrochloride]", "values": [{"measurement": "Ki", "value": 180, "unit": "nM"}]}
